Results published in doi:10.64898/2025.12.22.696046.
No constants are given. Whether binding was seen depends on the method and setting. Binding seen in cells or lysates may run through a third protein. Some binding calls cover weakened binding; strength is not graded here. Where a sequence is shown, tags or fusion partners need not be part of it.

Amino acid sequences for entries named in this document (tags omitted). Residues count along the entry.
UniProt P31554, residues 25-784: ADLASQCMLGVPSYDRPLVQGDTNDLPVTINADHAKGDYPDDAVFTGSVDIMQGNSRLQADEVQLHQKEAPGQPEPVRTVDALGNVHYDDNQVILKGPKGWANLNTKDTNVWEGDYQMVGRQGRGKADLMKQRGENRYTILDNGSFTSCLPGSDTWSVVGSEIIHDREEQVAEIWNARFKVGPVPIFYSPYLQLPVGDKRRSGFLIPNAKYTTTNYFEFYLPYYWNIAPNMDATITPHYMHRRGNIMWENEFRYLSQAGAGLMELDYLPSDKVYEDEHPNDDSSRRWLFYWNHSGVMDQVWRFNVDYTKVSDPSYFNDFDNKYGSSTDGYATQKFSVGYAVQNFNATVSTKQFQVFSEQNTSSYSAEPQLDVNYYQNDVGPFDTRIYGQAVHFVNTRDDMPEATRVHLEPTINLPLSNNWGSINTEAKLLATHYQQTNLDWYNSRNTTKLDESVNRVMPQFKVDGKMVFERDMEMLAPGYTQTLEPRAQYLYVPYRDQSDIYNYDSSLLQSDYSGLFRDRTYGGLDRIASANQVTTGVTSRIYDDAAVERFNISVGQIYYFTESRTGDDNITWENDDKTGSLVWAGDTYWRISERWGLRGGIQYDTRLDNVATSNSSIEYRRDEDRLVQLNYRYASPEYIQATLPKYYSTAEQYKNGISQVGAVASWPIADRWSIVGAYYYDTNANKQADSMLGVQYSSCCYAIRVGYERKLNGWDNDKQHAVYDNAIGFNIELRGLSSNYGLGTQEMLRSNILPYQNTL

T1: His×6-tagged YfgH (E. coli) (UniProt P65290)
T1 sequence: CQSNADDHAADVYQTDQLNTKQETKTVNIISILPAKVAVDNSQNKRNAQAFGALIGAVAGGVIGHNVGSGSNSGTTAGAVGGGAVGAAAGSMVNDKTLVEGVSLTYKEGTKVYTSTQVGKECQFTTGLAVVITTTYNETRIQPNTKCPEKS

B1: OmpF (protein, UniProt P02931 23-362)
chain: AEIYNKDGNKVDLYGKAVGLHYFSKGNGENSYGGNGDMTYARLGFKGETQINSDLTGYGQWEYNFQGNNSEGADAQTGNKTRLAFAGLKYADVGSFDYGRNYGVVYDALGYTDMLPEFGGDTAYSDDFFVGRVGGVATYRNSNFFGLVDGLNFAVQYLGKNERDTARRSNGDGVGGSISYEYEGFGIVGAYGAADRTNLQEAQPLGNGKKAEQWATGLKYDANNIYLAANYGETRNATPITNKFTNTSGFANKTQDVLLVAQYQFDFGLRPSIAYTKSKAKDVEGIGDVDLVNYFEVGATYYFNKNMSTYVDYIINQIDSDNKLGVGSDDTVAVGIVYQF
B2: OmpC (protein, UniProt P06996 22-367)
chain: AEVYNKDGNKLDLYGKVDGLHYFSDNKDVDGDQTYMRLGFKGETQVTDQLTGYGQWEYQIQGNSAENENNSWTRVAFAGLKFQDVGSFDYGRNYGVVYDVTSWTDVLPEFGGDTYGSDNFMQQRGNGFATYRNTDFFGLVDGLNFAVQYQGKNGNPSGEGFTSGVTNNGRDALRQNGDGVGGSITYDYEGFGIGGAISSSKRTDAQNTAAYIGNGDRAETYTGGLKYDANNIYLAAQYTQTYNATRVGSLGWANKAQNFEAVAQYQFDFGLRPSLAYLQSKGKNLGRGYDDEDILKYVDVGATYYFNKNMSTYVDYKINLLDDNQFTRDAGINTDNIVALGLVYQF
B3: OmpA (protein, UniProt P0A910 22-346)
chain: APKDNTWYTGAKLGWSQYHDTGFINNNGPTHENQLGAGAFGGYQVNPYVGFEMGYDWLGRMPYKGSVENGAYKAQGVQLTAKLGYPITDDLDIYTRLGGMVWRADTKSNVYGKNHDTGVSPVFAGGVEYAITPEIATRLEYQWTNNIGDAHTIGTRPDNGMLSLGVSYRFGQGEAAPVVAPAPAPAPEVQTKHFTLKSDVLFNFNKATLKPEGQAALDQLYSQLSNLDPKDGSVVVLGYTDRIGSDAYNQGLSERRAQSVVDYLISKGIPADKISARGMGESNPVTGNTCDNVKQRAALIDCLAPDRRVEIEVKGIKDVVTQPQA

These molecules were tested against T1, His×6-tagged YfgH (E. coli) (assay: pull-down).

binding, binds:
LptD (from UniProt P31554 25-784)
B1
B2
B3
